Measured values: PubChem BioAssay AID504444 (National Center for Advancing Translational Sciences (NCATS), 2011)
In all, about 360,000 compounds went through this assay and about 7,500 (2.1%) were called active. The inconclusive results got no clear call from the source; some entries with a clear call stand among them for comparison. Calls follow the shape of the dose curve; as a rule, active = well fitted inhibition curve with a large enough effect; inconclusive = small, poorly fitted or top-dose-only effect, or effect the other way; inactive = flat fitted curve, though single readings scatter. Where the call is inconclusive, the potency comes from a doubtful curve fit.

Test: Nrf2 qHTS screen for inhibitors; also: nearly all actives have a fitted effect of over 60% in size
Details: A549 ARE-Fluc reporter, luciferase luminescence, 18-24 h; activity change, negative = inhibition: at 46 µM (top of the series)
Summary of the method: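 Concentration-response testing used A549 ARE_Fluc cells at 5000 cells/well. Following an 18-24 h compound incubation, viability was read by fluorescence (Ex 405/Em 525) and luciferase output by luminescence.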
% is scaled to controls: 0 for no effect and ±100 for the full control effect; potency is read from the fitted curve at half-maximal effect.

| SMILES | Potency | activity change, negative = inhibition |
| --- | --- | --- |
| CCOc1ccc(-n2c(Cc3ccccc3)nnc2SCc2nc(-c3cccs3)no2)cc1 | active: 18.4 µM | – |
| COc1cccc(-c2nc(NC(C)(C)C)c3ccccc3n2)c1O | inconclusive: 20.6 µM [falling, single point] | – |
| COc1ccccc1NS(=O)(=O)c1cccc(C(=O)NC2CCN(Cc3ccccc3)CC2)c1 | active: 2.31 µM | – |
| CCn1c(SCC(=O)Nc2ccc(NC(=O)c3ccco3)c(OC)c2)nc2ccccc2c1=O | inconclusive: 0.366 µM [falling, full curve, poor fit] | – |
| Cc1cccc(NC(=S)N/N=C/c2ccc([N+](=O)[O-])s2)c1 | active: 11.2 µM | – |
| COc1ccccc1S(=O)Cc1ccc(C(=O)NC2CCCC2)o1 (stereo not given) | inactive | – |
| CC1CCCCC1Nc1nc2ccc(Cl)cc2n2cnnc12 (stereo not given) | inconclusive: 13 µM [falling, partial curve, poor fit] | – |
| Cn1c(=O)c2c(ncn2CCCc2ccccc2)n(C)c1=O | inactive | – |
| COc1ccc2c(CC(=O)Nc3ccccc3N3CCOCC3)coc2c1 | inconclusive: 25.9 µM [falling, partial curve, poor fit] | – |
| CN(C(=O)c1cccc(NC(=O)Cc2ccc(NC(=O)C3CCCN(C(=O)CCc4ccccc4)C3)cc2)c1)C1CCCC1 (stereo not given) | active: 20.6 µM | – |
| CCn1c2ccc(F)cc2c2nc3ccccc3nc21 | inconclusive: 20.6 µM [activator, single point] | – |
| Cn1c(SCC(=O)N(C2CCCCC2)C2CCCCC2)nnc1-c1cccs1 | inconclusive: 32.6 µM [falling, partial curve, poor fit] | – |
| COc1ccc(N2CCN(C(=O)c3cc4c(C)nc5ccccc5c4o3)CC2)cc1 | inconclusive: 18.4 µM [falling, single point] | – |
| CC(C)N1CCN(C(=O)c2ccc([N+](=O)[O-])cc2)CC1 | inactive | – |
| CC(=O)N1CCN(c2ccc(NC(=O)c3ccc4c(c3)OCCO4)cc2)CC1 | inactive | – |
| COc1cccc(NC(=O)N(Cc2c[nH]c3ccccc23)C2CCCCCC2)c1 | inconclusive: 25.9 µM [activator, single point] | – |
| CCOc1ccc2nc(NC(=O)c3cccnc3)sc2c1 | inconclusive: 1.16 µM [activator, full curve, poor fit] | – |
| O=C(N/N=C/c1ccccc1[N+](=O)[O-])c1ccc2c(c1)OCCO2 | inconclusive: 2.31 µM [activator, partial curve] | – |
| Cc1ccnc(NC(=O)c2ccc([N+](=O)[O-])s2)c1 | inactive | – |
| CC(=O)Cc1cc(O)c2ccccc2c1OC(=O)c1ccccc1 | inactive | – |
| COc1ccc(S(=O)(=O)N2CCCC(C(=O)NC3CCCC3)C2)cc1OC (stereo not given) | inconclusive: 20.6 µM [falling, single point] | – |
| Cc1cc(C)nc(NC(=O)CSc2nc3ccccc3s2)n1 | inconclusive: 1.64 µM [activator, partial curve, poor fit] | – |
| O=C(COC(=O)/C=C/c1cccs1)Nc1nc(-c2ccccc2)cs1 | inconclusive: 8.2 µM [activator, partial curve] | – |

Taken from above.
For Potency, COc1ccc(S(=O)(=O)N2CCCC(C(=O)NC3CCCC3)C2)cc1OC (stereo not given) reads inconclusive: 20.6 µM [falling, single point]
For Potency, O=C(N/N=C/c1ccccc1[N+](=O)[O-])c1ccc2c(c1)OCCO2 reads inconclusive: 2.31 µM [activator, partial curve]

Next part:

| SMILES | Potency | activity change, negative = inhibition |
| --- | --- | --- |
| CC1CCCC(NC(=O)COC(=O)/C=C/c2ccc(S(=O)(=O)N3CCOCC3)cc2)C1C (stereo not given) | inactive | – |
| O=C(Cn1nc(-c2ccccc2)c2c(c1=O)CCCC2)Nc1ccc(F)c(Cl)c1 | inconclusive: 29.1 µM [falling, single point] | – |
| CCOC(=O)c1c(C)oc2nc(C)nc(N3CCN(c4cc(Cl)ccc4C)CC3)c12 | inactive | – |
| [O-]/[N+](=C\c1ccncc1)c1ccc(Br)cc1 | inconclusive: 20.6 µM [activator, single point] | – |
| CCCCn1c(=NC(=O)c2cccnc2)c(C#N)cc2c(=O)n3cccc(C)c3nc21 | inactive | – |
| Cc1onc(-c2ccccc2)c1C(=O)Nc1nnc(C(C)C)s1 | inactive | – |
| CCOc1ccc(-n2c(SCC(=O)Nc3cc(C)on3)nc3c([nH]c4ccccc43)c2=O)cc1 | inconclusive: 8.2 µM [falling, partial curve, poor fit] | – |
| CCc1ccccc1N(C)C(=O)Cn1cnc2sc(C)c(S(=O)(=O)N3CCC(C)CC3)c2c1=O | – | inactive: 5.09% [at 9.27 µM] |
| CN(CCC(=O)Nc1ccc2c(c1)OCO2)Cc1ccccc1 | inconclusive: 25.9 µM [activator, partial curve, poor fit] | – |
| Cc1ccc(-c2nc(-c3ccccn3)no2)cc1[N+](=O)[O-] | inconclusive: 0.206 µM [activator, full curve] | – |
| O=C(NCCCN1CCOCC1)c1ccc(S(=O)(=O)Nc2cccc(C(F)(F)F)c2)cc1 | inactive | – |
| COc1cccc(CNC(=O)CCCn2nc(C)c3sc4ccccc4c3c2=O)c1 | inactive | – |
| CCOc1ccc(C(=O)Nc2ccc(CN3CCOCC3)cc2)cc1Br | inconclusive: 18.4 µM [falling, single point] | – |
| NC(=O)c1cc(Cl)ccc1OCC(=O)Nc1ccc2c(c1)OCO2 | inconclusive: 1.3 µM [activator, full curve] | – |
| O=C(c1cc(-c2cccc(Cl)c2)on1)N1CCCCC1 | inconclusive: 8.2 µM [activator, partial curve, poor fit] | – |
| N#CC(=C1CCCC1)c1nc(-c2ccc(Cl)cc2)cs1 | inconclusive: 5.8 µM [activator, full curve] | – |
| CCOC(=O)N1CCc2c(sc(NC(=O)CCS(=O)(=O)c3ccccc3)c2C(N)=O)C1 | inconclusive: 23.1 µM [falling, partial curve, poor fit] | – |
| COc1ccc(CC(=O)Nc2nc(-c3cccnc3)cs2)cc1 | inconclusive: 16.4 µM [activator, partial curve] | – |
| O=C(O)c1ccc(N/N=C/c2ccc(-c3cccc(Cl)c3)o2)cc1 | inconclusive: 8.2 µM [activator, partial curve] | – |
| Cc1ccc(NC(=O)c2c(NC(=O)c3ccc(F)cc3)sc3c2CCCC3)cc1C | inconclusive: 20.6 µM [activator, single point] | – |
| Cc1cc(C)n(-c2ccc3cccc(NS(C)(=O)=O)c3n2)n1 | active: 5.17 µM | – |
| Cc1sc(NC(=O)C2CCCCC2)c(C#N)c1-c1ccccc1 | inconclusive: 2.91 µM [activator, full curve, poor fit] | – |
